Measured values as given in patent US20090203538A1.
Results are given in words; binding and its absence hold for the method and conditions named. Binding can be weak; no strength is given.

Biological target: HER1 (Homo sapiens (Human))
Experiment: antigen assigned by the filing's classifying and identification method; details for this clone not given

B1: 067-149 antibody (antibody, V domains shown)
VH: QVQLQESGGGLVKPGGSLRLSCAASGFSFSDYYMSWVRQAPGKGLEWISYITSSSSDTDYADSVKGRFTISRDNAKNSLYLQMNSLRADDTAVYYCARVGYYYDYYYYYYMDVWGKGTTVTVSR
VL: SSELTQDPAVSVALGQTVRITCQGDSLRGYYASWYQQKPGQAPVLVVYDENNRPSGIPDRFSGSSSGNTASLTITGAQAEDEADYYCNSRDINLDWVFGGGTKLTVLG
binding: binds
